# In paper PMC10517460:
# The chains behind the UniProt entries cited, without tags or fusion partners. Residues count along the entry.
# UniProt O88572, residues 20-1613: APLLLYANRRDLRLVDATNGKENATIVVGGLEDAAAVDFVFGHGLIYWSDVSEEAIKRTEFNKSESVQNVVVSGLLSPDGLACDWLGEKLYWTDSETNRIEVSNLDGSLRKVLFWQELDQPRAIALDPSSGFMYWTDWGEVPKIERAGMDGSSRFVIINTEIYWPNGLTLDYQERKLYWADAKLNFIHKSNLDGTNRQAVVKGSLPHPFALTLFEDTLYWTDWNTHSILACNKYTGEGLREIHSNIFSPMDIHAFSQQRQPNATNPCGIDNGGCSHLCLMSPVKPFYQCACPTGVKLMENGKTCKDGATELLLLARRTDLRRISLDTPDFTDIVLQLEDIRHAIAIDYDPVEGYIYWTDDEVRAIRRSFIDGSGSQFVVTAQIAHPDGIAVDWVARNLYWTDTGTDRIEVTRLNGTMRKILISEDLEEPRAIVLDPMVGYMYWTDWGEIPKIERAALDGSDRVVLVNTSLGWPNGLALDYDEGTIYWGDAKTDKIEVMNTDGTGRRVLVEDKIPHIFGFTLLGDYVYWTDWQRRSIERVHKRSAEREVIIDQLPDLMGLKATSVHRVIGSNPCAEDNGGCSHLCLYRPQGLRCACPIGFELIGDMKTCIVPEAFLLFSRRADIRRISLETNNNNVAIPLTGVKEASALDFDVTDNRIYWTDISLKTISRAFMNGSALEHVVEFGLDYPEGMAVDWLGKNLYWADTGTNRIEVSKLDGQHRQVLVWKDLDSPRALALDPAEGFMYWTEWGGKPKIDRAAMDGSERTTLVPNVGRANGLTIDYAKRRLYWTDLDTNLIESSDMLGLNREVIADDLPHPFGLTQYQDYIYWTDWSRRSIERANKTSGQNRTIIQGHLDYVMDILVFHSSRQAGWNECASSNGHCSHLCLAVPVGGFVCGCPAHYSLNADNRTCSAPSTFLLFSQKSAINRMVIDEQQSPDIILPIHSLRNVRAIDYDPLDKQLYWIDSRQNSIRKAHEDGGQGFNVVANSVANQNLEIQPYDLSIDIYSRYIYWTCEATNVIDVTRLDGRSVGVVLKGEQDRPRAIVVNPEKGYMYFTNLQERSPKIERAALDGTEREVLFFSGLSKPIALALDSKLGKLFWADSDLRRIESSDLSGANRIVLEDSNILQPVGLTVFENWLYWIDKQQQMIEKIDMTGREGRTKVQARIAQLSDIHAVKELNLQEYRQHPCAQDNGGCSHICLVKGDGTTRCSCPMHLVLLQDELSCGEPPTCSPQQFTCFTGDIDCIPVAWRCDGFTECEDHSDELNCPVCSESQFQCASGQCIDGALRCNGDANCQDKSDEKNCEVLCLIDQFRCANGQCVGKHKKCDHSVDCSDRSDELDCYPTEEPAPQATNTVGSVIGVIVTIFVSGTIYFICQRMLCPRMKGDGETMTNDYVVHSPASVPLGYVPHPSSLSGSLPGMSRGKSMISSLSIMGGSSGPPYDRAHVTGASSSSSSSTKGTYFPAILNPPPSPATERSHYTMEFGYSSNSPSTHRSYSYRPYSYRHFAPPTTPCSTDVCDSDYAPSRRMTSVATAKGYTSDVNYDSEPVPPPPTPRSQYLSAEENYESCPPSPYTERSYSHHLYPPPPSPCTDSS
# UniProt Q922U2: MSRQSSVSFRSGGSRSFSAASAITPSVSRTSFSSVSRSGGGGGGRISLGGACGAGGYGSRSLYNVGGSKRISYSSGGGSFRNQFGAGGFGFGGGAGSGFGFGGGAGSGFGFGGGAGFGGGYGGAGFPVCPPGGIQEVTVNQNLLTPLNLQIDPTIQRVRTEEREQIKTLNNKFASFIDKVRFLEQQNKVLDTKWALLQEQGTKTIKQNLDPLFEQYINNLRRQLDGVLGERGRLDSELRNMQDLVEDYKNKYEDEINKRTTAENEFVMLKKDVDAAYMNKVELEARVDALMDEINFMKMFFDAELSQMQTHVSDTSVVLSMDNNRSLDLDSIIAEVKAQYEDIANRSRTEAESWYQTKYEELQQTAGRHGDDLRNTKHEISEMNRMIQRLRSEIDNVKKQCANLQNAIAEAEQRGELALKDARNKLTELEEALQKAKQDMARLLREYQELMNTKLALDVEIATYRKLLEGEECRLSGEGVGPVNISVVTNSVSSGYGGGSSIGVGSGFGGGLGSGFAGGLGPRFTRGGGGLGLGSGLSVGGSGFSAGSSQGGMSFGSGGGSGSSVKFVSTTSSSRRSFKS
# Results are given in words; binding and its absence hold for the method and conditions named. Binding seen in cells or lysates may run through a third protein. Some entries that bind do so weakly or less than the wild type.
# Target: LDL receptor-related protein 6 (mouse (endogenous in purified AEC2s)) (UniProt O88572)
# Test: FRET or BRET; acceptor photobleaching FRET by confocal microscopy (Leica … 5, LAS X FRET AB module) in purified AEC2s treated with CTGF (10 ng/mL); donor Krt5, acceptor LRP6
substance,measurement,value
Keratin 5 (from UniProt Q922U2 1-580),binding,binds
